Assay results taken from paper PMC4117788, “Structural dynamics of the two-component response regulator RstA in recognition of promoter DNA element” (Nucleic Acids Research, 2014).
Results are given in words; binding and its absence hold for the method and conditions named.

Target: Klebsiella pneumoniae RstA C-terminal DNA-binding domain (Klebsiella pneumoniae) (UniProt A6T8N1)
Assay: NMR 15N relaxation (overall rotational correlation time); kpRstA DBD free (pH 6) and with DNA-16a (pH 6.5); 20 mM sodium phosphate, 50 mM NaCl, 1 mM EDTA, 1 mM DTT; 800 MHz; both purified

B1: Klebsiella pneumoniae RstA C-terminal DNA-binding domain (domain or fragment, UniProt A6T8N1 131-236)
chain: TLTPHKTISFGSLTIDPVNRQVLLGGENVALSTADFDLLWELATHAGQIMDRDALLKNLRGVTYDGMDRSVDVAISRLRKKLLDNATEPYRIKTVRNKGYLFAPHA
B1 was tested, and the binding was “no binding (tested: 0.1–1.0 mM protein samples)”.
